## Primary screen of a compound library

Protein sequences, listed by entry. Tags and fused reporters are not part of them.
UniProt E9BF75, entry or part of it: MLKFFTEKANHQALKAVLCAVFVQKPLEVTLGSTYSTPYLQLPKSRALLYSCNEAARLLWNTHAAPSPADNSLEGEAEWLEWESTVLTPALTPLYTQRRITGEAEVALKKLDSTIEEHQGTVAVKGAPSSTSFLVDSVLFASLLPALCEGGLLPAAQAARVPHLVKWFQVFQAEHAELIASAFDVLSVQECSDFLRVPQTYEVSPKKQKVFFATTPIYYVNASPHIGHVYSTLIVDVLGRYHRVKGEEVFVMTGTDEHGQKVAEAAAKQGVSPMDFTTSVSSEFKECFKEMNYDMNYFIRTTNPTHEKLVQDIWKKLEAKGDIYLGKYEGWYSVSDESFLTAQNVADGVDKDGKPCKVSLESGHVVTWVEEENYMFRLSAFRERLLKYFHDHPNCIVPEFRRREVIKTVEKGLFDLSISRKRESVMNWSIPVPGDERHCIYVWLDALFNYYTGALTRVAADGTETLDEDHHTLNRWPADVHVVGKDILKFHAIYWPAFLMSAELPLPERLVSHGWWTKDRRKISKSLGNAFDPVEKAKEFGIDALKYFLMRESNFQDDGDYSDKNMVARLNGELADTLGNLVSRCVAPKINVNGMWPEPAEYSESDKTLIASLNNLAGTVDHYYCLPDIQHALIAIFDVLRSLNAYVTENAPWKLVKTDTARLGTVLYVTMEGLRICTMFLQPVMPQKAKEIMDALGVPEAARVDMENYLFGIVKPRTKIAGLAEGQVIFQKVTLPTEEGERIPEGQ

Source: ChEMBL document CHEMBL3988442, “University of Dundee, Small-Polar-MMV Screening Library” (2021).

Results are percentages, as filed.
The record does not define 0% and 100%; most values in the screen are far below 50% and negative numbers occur (in some assays of this library far below -100).
This is an unselected part of the compounds tested.

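Methionyl-tRNA synthetase (putative), Leishmania donovani (UniProt E9BF75). Primary screen of methionyl-tRNA synthetase; the read-out is not stated. The test concentration is not given. The values are filed as inhibition. Of about 68,000 compounds tested this way, about 24 (0.035%) reached 50% or more in at least one test.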

SMILES,Inhibition
COc1ccc(OCC(=O)n2nc(C)c(C)c2C)cc1,13.66
CCOCCN1CCc2cncnc2C1,6.452
CC(NC(=O)N(C)Cc1ccncc1)c1cn(-c2ccccc2)nn1 (stereo not drawn),7.829
COc1cc(C)c(C(C)Nc2ncc(C(N)=O)cc2Cl)cc1OC (stereo not drawn),12.1
O=C(CCNC(=O)c1ccoc1)Nc1c(F)cccc1F,16.67
Cc1cc(F)ccc1-n1cc(O)c(C(=O)NCC2(O)CCC2)n1,2.439
COc1ccc2c(c1)OCC(Cc1cnccc1N)C2 (stereo not drawn),7.116
COc1ccnc(N2CCN(C(=O)NCc3ccc(C)s3)CC2)n1,20.83
CNS(=O)(=O)Cc1ccc(CNC(=O)Nc2cccnc2)cc1,5.164
Cc1cccc(CN2CCCC(O)(CNCc3ncccc3C)C2=O)c1 (stereo not drawn),-2.133
O=C(c1cccc2[nH]ccc12)N1CCC2(CCOC2)C1 (stereo not drawn),14.34
CCOC(=O)C1CCN(C(=O)c2cc(OCC)c3ccoc3c2)CC1,17.28
Cc1nnc([C@@]23CCO[C@@H]2CCN(S(=O)(=O)c2cccnc2)C3)o1,9.351
COCC(=O)N1CCn2c(CN3CCN(C)CC3)cnc2C1,18.73
O=C(O)c1csc(NCCc2ccccc2)n1,9.167
O=C(C1CNCCN1C(=O)CCOc1ccccc1)N1CCOCC1 (stereo not drawn),3.641
COc1c(C2CCCN2C(=O)c2sc(C)nc2C)c(C)nn1C (stereo not drawn),4.843
CN(C)C(=O)N1CCN(C(=O)Nc2nc(-c3ccccc3)ns2)CC1,14.09
Cc1nn(C)c2cn(C(C)C(=O)NCc3ccccn3)nc12 (stereo not drawn),6.281
O=C(c1cccc2c1OCCO2)N1CCCC(n2cccn2)C1 (stereo not drawn),16.52
Cc1cc(N2CCN(C(=O)Cc3c(C)nc(C)[nH]c3=O)CC2)cc(C)n1,3.553
Cn1cc(CN2CCO[C@@H]3CN(C4CCCC4)C[C@@H]3C2)cn1,4.965
Cc1cc(C(=O)NC2CCc3c(ccc(=O)n3CC3CC3)C2)no1 (stereo not drawn),9.29
CC(=O)N1CCC(C(=O)c2cnn(-c3ccccc3)c2N)C1 (stereo not drawn),15.84
O=C1CCC2(CCOC2)CN1CCCOc1cccnc1 (stereo not drawn),14.78
Cc1ccc(CN2C[C@@H]3[C@@H](C(=O)N4CCCC4)CCS(=O)(=O)[C@@H]3C2)cc1,-12.57
Cn1ncc2c1CCCC2NCc1ccc(Br)s1 (stereo not drawn),7.904
CCOCCN1CCN(Cc2nnc(-c3occc3C)o2)CC1,-3.559
c1ccc(-c2nnc(CNCCn3cccn3)o2)cc1,5.164
CN(Cc1ccc(Cl)s1)C(=O)NCc1nnc2n1CCC2,7.874
COc1ccc(CCC(=O)N2CCCC2Cn2cc(C)cn2)cc1F (stereo not drawn),6.944
CC(=O)N1CCC2(C1)CN(S(=O)(=O)c1ccccc1)C2,19.61
CCOC1CCN(C(=O)c2c(Cl)c3ccccc3n2C)CC1,16.59
CCc1nc(CN2CCCN(CC(=O)Nc3cccnc3)CC2)no1,3.78
CC(C)Cc1nc(CS(=O)(=O)c2ccccc2)no1,8.807
CSc1nccn1-c1cccc(C(=O)NCC(F)(F)F)c1,10.34
COc1cc(CN2CCC3(CC2)[C@H](O)C[C@@H]3OCCO)ccc1F,5.865
COc1cc2nc(NCc3cc(C)on3)nc(N)c2cc1OC,5.575
COCC(NC(=O)NCc1ccc(C)c(F)c1)c1ccco1 (stereo not drawn),12.88
O[C@H]1CCN(CC2CC2)[C@H]1Cc1ccncc1,5.797
Cc1ncsc1-c1nnc(C2CCCN2C(=O)Cn2cccn2)o1 (stereo not drawn),7.764
COc1c(Br)c(CC2CC(CO)=NO2)c(Br)c2c1OCO2 (stereo not drawn),15.58
O=C(c1cc(Cl)c[nH]1)N1CCN(CCc2ccccn2)CC1,20.41
CSCC[C@H](N)c1nnc(SCc2cc(C)ccc2C)o1,23.3
COC[C@H](C)Nc1cc(C)c2ccc(SC)cc2n1,20.21
CCOCC(=O)NCc1cc(Br)ccc1OC(F)F,6.897
O=S(=O)(Nc1ncccc1F)c1cc(Cl)cc2c1OCC2,15.22
Cc1cc(NC(N)=O)ccc1OCC(F)(F)F,14.81
O=C(NCC(O)c1ccc(Cl)s1)c1ccoc1 (stereo not drawn),16.17
NC(=O)CN1CC(c2nc(C3CC3)no2)C1,10.09
CCCN(CC(=O)NC)C(=O)c1ccc(-c2ccsc2)nc1C,17.7
CS(=O)(=O)NC[C@]12COC[C@H]1CN(C(=O)c1ncccn1)C2,1.418
Cc1cnc(N2CCCC3(COCCN(c4nccs4)C3)C2)nc1 (stereo not drawn),17.37
Cc1ccc(C(N)c2cccc(S(C)(=O)=O)c2)cc1 (stereo not drawn),19.58
COCC(=O)NCCC(=O)N1CCN(S(=O)(=O)c2ccc(Br)cc2)CC1,0.2564
CCc1ccc(C(=O)O)cc1S(=O)(=O)Nc1ccc(=O)n(C)c1,2.174
Cc1cc(CN2CC[C@@H]3[C@@H](CCC(=O)N3CCc3c[nH]cn3)C2)oc1C,17.02
c1csc(CN2CCCN(c3ccc(Cn4ccnc4)cn3)CC2)c1,15.87
Cn1cccc1C(=O)N1CCC(c2nccn2Cc2ccncc2)CC1,13.38
CCCc1cc(N2CCC(NCCc3ccc(O)cc3)CC2)nc(C)n1,16.08
O=C(CN1CCCC1CC(=O)c1ccccc1)NCc1ccccn1 (stereo not drawn),1.987
Cc1nc(N(C)C)ncc1C(=O)N(Cc1ccncc1)CC1CCCO1 (stereo not drawn),15.41
CCN(C)C(=O)CCN(C)Cc1cnc(C)s1,10.45
COc1cccc2c1OCC(C(=O)NCc1c(C)noc1C)C2 (stereo not drawn),19.31
Cc1nc[nH]c1CN1CCCC12CCN(c1ccccn1)CC2,11.04
CC(C)Oc1ncccc1CNC(=O)N1CCC1,15.64
CN(Cc1ccc(Cl)s1)C(=O)NCCC(=O)N1CCCCCC1,12.06
CC(C)c1nnc2n1CCN(C(=O)c1ccc(N(C)C)nn1)C2,3.614
O=C(c1nc(Cc2c[nH]c3ccccc23)no1)N1CCCC1,7.068
O=S(=O)(Cc1ccc(Br)cc1)NCCO,3.158
CCc1cc(NC2CCS(=O)(=O)CC2)nc(N2CCCCC2)n1,11.29
O=C1N[C@@H]2CCN(C(=O)c3ccccc3)[C@@H]2C(=O)N1Cc1ccccc1,17.03
CN(C)c1ncccc1CNC(=O)CCNc1ncccn1,9.322
Cc1cc(Nc2cnccn2)cc(C2CCCN2)n1 (stereo not drawn),5.975
O=C(Cc1noc(C(=O)NCC2CC2)n1)Nc1cccc(C(F)(F)F)c1,-11.21
COCCN(CCOC)Cc1c(C)nc2ccccc2c1O,5.135
Cc1noc(C)c1CNC(=O)NCCC(=O)N1CCCc2ccccc21,8.659
O=C(NCCNc1cnccn1)N1CCc2ccccc2C1,8.791
Cn1cc(CN2CCc3onc(C(=O)Nc4cccnc4)c3C2)cn1,14.84
CN(C)CC1CN(Cc2coc(-c3ccc(Cl)cc3)n2)CCO1 (stereo not drawn),7.736
Cc1nn(CCO)c(C)c1CNC1CCOc2ccccc21 (stereo not drawn),10.84
Cc1noc(C)c1-c1cccc(CC2CCN(C(=O)c3cc[nH]n3)C2)n1 (stereo not drawn),12.89
CCc1nnc(SCc2nonc2C)n1C1CC1,8.393
COc1ccc2c(c1)OCC(CNC1CCc3ncnn3C1)=C2 (stereo not drawn),11.92
Cc1nc(-c2ccccc2)n(CC(=O)NC(C)C)n1,21.17
CN(C)C(=O)CO[C@H]1CN(Cc2ccc3c(c2)OCO3)[C@@H]2COC[C@H]12,13.11
Cc1ccc(CNc2ccc(N3CCC(CO)CC3)cn2)o1,8.052
CC(C(=O)Nc1ccc2ccccc2c1)N1CCC(n2ccnc2)CC1 (stereo not drawn),14.98
CC(O)CNCc1c[nH]nc1-c1cc2ccccc2o1 (stereo not drawn),10.44
Cc1ccnc(C(NC(=O)c2oc(C)nc2C)C2CC2)n1 (stereo not drawn),10.14
CN(C)C(CNCc1nc(-c2ccsc2)no1)c1ccsc1 (stereo not drawn),-4.261
N#CCc1ccc(OCC(=O)NS(=O)(=O)c2cccs2)cc1,1.847
O=C1CSC(c2ccc(O)cc2)c2sccc2N1 (stereo not drawn),1.818

The first 5 entries again:

{"smiles": "COc1ccc(OCC(=O)n2nc(C)c(C)c2C)cc1", "Inhibition": 13.66}
{"smiles": "CCOCCN1CCc2cncnc2C1", "Inhibition": 6.452}
{"smiles": "CC(NC(=O)N(C)Cc1ccncc1)c1cn(-c2ccccc2)nn1", "stereo": "stereo not drawn", "Inhibition": 7.829}
{"smiles": "COc1cc(C)c(C(C)Nc2ncc(C(N)=O)cc2Cl)cc1OC", "stereo": "stereo not drawn", "Inhibition": 12.1}
{"smiles": "O=C(CCNC(=O)c1ccoc1)Nc1c(F)cccc1F", "Inhibition": 16.67}